The results in this text go back to publication PMC7819943, “Rice protein-binding microarrays: a tool to detect cis-acting elements near promoter regions in rice”.

The other results are listed elsewhere or left out.

In this assay the target is T1, OsSMF1 (Oryza sativa, UniProt Q6ZLB0 1-436).
T1 sequence: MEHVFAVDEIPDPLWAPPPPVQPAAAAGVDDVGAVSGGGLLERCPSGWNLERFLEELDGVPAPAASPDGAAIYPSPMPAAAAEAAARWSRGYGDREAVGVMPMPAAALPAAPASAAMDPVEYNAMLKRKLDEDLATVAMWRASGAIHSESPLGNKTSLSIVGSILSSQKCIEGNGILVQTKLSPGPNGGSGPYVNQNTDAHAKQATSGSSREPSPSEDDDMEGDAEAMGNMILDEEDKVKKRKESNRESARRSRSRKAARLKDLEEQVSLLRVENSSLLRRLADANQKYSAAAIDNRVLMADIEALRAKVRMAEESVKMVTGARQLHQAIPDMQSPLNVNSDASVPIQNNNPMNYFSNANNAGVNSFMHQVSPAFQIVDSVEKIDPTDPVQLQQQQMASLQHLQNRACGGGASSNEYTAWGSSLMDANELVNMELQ
As to the kind of experiment: protein-binding microarray (RPBM); PBS, 2% BSA, 51.3 ng/ul salmon testes DNA, 50 uM zinc acetate, 200 nM TF, 25 C, 1 h; high values mean tight binding. As to conditions: protein: recombinant; tags: N-terminal polyhistidine and DsRed monomer fusion (pET32a); chain copies: 2; label: CyDye5-dUTP incorporated in the synthesized complementary strand; 3' TTTTT single-stranded linker to array surface; dsDNA, one strand shown. In short, it runs like this:
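In PBS with 2% BSA, salmon testes DNA and 50 µM zinc acetate, 200 nM protein was incubated on a custom Agilent array at 25 °C for 1 h and then washed off. The array had been made double-stranded by primer extension with Cy5-dUTP and blocked with 2% BSA. The proteins were transcription factors fused N-terminally to polyhistidine and DsRed, expressed in E. coli BL21-CodonPlus and purified on Ni–NTA. The binding signal is per-feature fluorescence intensity (arbitrary units) from an Axon 4000B scanner.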
For the sequence “AAACACTATGGTGACCACGGCGCGAAGACCTCGGTGATGACGGAGTCACCTAGTGCAG”, the binding signal was 3140 fluorescence intensity (a.u.). For the sequence “GCTTCCCACGCGTCGCTTCGCTATCGCGGCCGTCCCCGCACGGAGTCACCTAGTGCAG”, the binding signal was 5120 fluorescence intensity (a.u.). In the case of “ACAGTAGCACCGGAAAGCTGCATGTGAAGTCTAGTCAACGCGGAGTCACCTAGTGCAG” it was 4250 fluorescence intensity (a.u.). To “CGCGGTACTCCCTCGCCACCGTGTACGTGACGTCCGCGGCCGGAGTCACCTAGTGCAG” belongs 7160 fluorescence intensity (a.u.); to “AGAAGGCCCACGCTAAACAGCCCACGTAATAACCGCACGGCGGAGTCACCTAGTGCAG”, 5110 fluorescence intensity (a.u.); to “TCGATAAATGTTTCATTTCATTTTAGTACACGCATTGGCGCGGAGTCACCTAGTGCAG”, 3300 fluorescence intensity (a.u.). In the case of “GAGTGTGCAGAGGGAGACAAAGGTGATCTGGCAGTGGATACGGAGTCACCTAGTGCAG” it was 4550 fluorescence intensity (a.u.); in that of “ATCCACCATCCATCCACGTCGCGACGCGTCCAACTCCATCCGGAGTCACCTAGTGCAG”, 4810 fluorescence intensity (a.u.). Take “TCTTTCGCTGCGTTGCGTCATCAGCTCTGAAACTCTGAAACGGAGTCACCTAGTGCAG”: the binding signal is 10100 fluorescence intensity (a.u.). To “GGAGGAAAATGGCCCTGATCAGCATCAGGGCAAGTACTATCGGAGTCACCTAGTGCAG” belongs 3200 fluorescence intensity (a.u.). Take “ATATTGCTTTGGGATCAAAAGGTGACTCAGTTTATACCAGCGGAGTCACCTAGTGCAG”: the binding signal was 3650 fluorescence intensity (a.u.).

As for “CCCTGCCCACCTGCCACGTGTCTCTACCAATAAATCACCTCGGAGTCACCTAGTGCAG”, the binding signal is 11600 fluorescence intensity (a.u.). In the case of “CGCATGTAGAATCTAACTAGTTAAAGATTAAAATTTTGAACGGAGTCACCTAGTGCAG” it was 29100 fluorescence intensity (a.u.). With “AAGGTCTCGCTCTCACTCACCGACGTCACCGTTCCTTTATCGGAGTCACCTAGTGCAG”, the binding signal was 3550 fluorescence intensity (a.u.).

Turning to “ATGCAATTTTGCCCAAGTAGCCCATAAAACCTCCGGACCACGGAGTCACCTAGTGCAG”, the binding signal is 31700 fluorescence intensity (a.u.). To “AGTACTGTAATAATTCTATTAACTTTCTTGTTCAGAATGCCGGAGTCACCTAGTGCAG” belongs 3590 fluorescence intensity (a.u.). In the case of “TTTAATGTCTAAATTTAATAGTAGAGTCATACCTTCACCTCGGAGTCACCTAGTGCAG”, the binding signal was 4010 fluorescence intensity (a.u.). In the case of “TGAAGAAGCTCCACCTCTTGGCGTTAATGACAATGACAGTCGGAGTCACCTAGTGCAG” it was 3490 fluorescence intensity (a.u.). In the case of “CCAGTCAACGCCACGACATTCGCACGGCTCGCCCAACTCCCGGAGTCACCTAGTGCAG” it was 5780 fluorescence intensity (a.u.); in that of “ATTCTACCACATCACACACACACAAACACACACATATTCTCGGAGTCACCTAGTGCAG”, 3520 fluorescence intensity (a.u.). For the sequence “TGTCAGCCCACAGGAAAATTTGCTGCCATGCCGGCGTGCGCGGAGTCACCTAGTGCAG”, the binding signal is 3460 fluorescence intensity (a.u.). With “GCATATCGGCGCTCCCCGACGACCTCATCCAGCGCATCCTCGGAGTCACCTAGTGCAG”, the binding signal was 3600 fluorescence intensity (a.u.). On to “ACTACCACTCAAGGGTCTTTACCGTGACGCCATCAGTCTGCGGAGTCACCTAGTGCAG”, for which the binding signal was 7250 fluorescence intensity (a.u.).

Consider “AACTCCAATGCACGCCACGCCACGCCACAATTACAATTATCGGAGTCACCTAGTGCAG”, for which the binding signal was 4100 fluorescence intensity (a.u.). With “GAGGCCTCCTCGGGAGCTAAGCTTGTATGCGTGTGGCTCGCGGAGTCACCTAGTGCAG”, the binding signal is 25500 fluorescence intensity (a.u.). To “CGGCACGTGGATGTGCAGCCAGTGACGTACGTATAGTTATCGGAGTCACCTAGTGCAG” belongs 3940 fluorescence intensity (a.u.); to “CTGTCTTATACCGTTATACGCTGACGTCAGCAATAGTGTCCGGAGTCACCTAGTGCAG”, 23000 fluorescence intensity (a.u.). On to “GTGTAAAGAAGACCCGGTCAATATCGCCACGTCAGCGAAACGGAGTCACCTAGTGCAG”, for which the binding signal was 21400 fluorescence intensity (a.u.). “AGGCCTTGCTTCTCCCGTAGCTTACGTGTAAACGACGACCCGGAGTCACCTAGTGCAG”: the binding signal was 18300 fluorescence intensity (a.u.). On to “CTCCCCTAACTATGTGCAGTGTCACTGACATGTGGGTCATCGGAGTCACCTAGTGCAG”, for which the binding signal is 4110 fluorescence intensity (a.u.).

As for “TCTGTAGTAGTCATCATCACCTAGGTGCCTACCCTTTTGACGGAGTCACCTAGTGCAG”, the binding signal is 3280 fluorescence intensity (a.u.). Take “CTAAGGGTCTAAGAGATGATGCTGTGATGAGGTGGATCATCGGAGTCACCTAGTGCAG”: the binding signal is 4840 fluorescence intensity (a.u.). As for “CCCTGCGCTGCCACGCGGCCGGCATCCGCCAAAGCAACAGCGGAGTCACCTAGTGCAG”, the binding signal is 4880 fluorescence intensity (a.u.). For “ATATGGCCCATTGACCTAGTCCAACCGCTAAGTCATCATTCGGAGTCACCTAGTGCAG”, the binding signal is 22900 fluorescence intensity (a.u.). In the case of “CCAAGCATTAATGACGCTTTAAATTACTACCCCTTCCGTGCGGAGTCACCTAGTGCAG” it was 3950 fluorescence intensity (a.u.); in that of “CGATGGTGGCTCATGGAGAAAGAGGGGTGATGGCGGTGCGCGGAGTCACCTAGTGCAG”, 3690 fluorescence intensity (a.u.). “CCATTTATAGGTGTGTGAGGTGTGGTGTGCATGTGTATTTCGGAGTCACCTAGTGCAG”: the binding signal was 4440 fluorescence intensity (a.u.). To “TGTGTTTATGTACGTGCGTAGGCAGGCGTGTTCGGCCGGACGGAGTCACCTAGTGCAG” belongs 3400 fluorescence intensity (a.u.); to “GCAGCCACGACGCCCGCCAATGCTGCCGCCGCCATCGATGCGGAGTCACCTAGTGCAG”, 5300 fluorescence intensity (a.u.).

On to “ACCAGCGAAAATCTATTTTCACTAGCGGTTGCTTACGTGGCGGAGTCACCTAGTGCAG”, for which the binding signal is 22900 fluorescence intensity (a.u.). Turning to “TCAGAGCCGTTCAACCCCACGCGTGGACACAATCTGACCACGGAGTCACCTAGTGCAG”, the binding signal is 3980 fluorescence intensity (a.u.). With “AGTATATATATCGTCGTCGTCTCCGTCGACGACAAAACTGCGGAGTCACCTAGTGCAG”, the binding signal was 3740 fluorescence intensity (a.u.).
